Measurements: PubChem BioAssay AID1347139 (National Center for Advancing Translational Sciences (NCATS), 2019)
The inconclusive results got no clear call from the source; some entries with a clear call stand among them for comparison. Potencies of inconclusive entries are doubtful fits and often do not repeat. The source made the active and inactive calls. Calls follow the shape of the dose curve; as a rule, active = well fitted inhibition curve with a large enough effect; inconclusive = small, poorly fitted or top-dose-only effect; inactive = no such curve, though single readings can be large or run the other way.

Experiment: qHTS of pediatric cancer cell lines to identify multiple opportunities for drug repurposing: Orthogonal 3D viability screen for TC32 cells
Settings: TC32 3D spheroid viability, PI/Hoechst imaging, 72 h; series mostly up to 30.7 µM
From the text: Drug repurposing or repositioning has been offered as a strategy for drug development in oncology programs. This approach has special potential for childhood cancers and other rare or orphan diseases, where the expected return on new drug development has been a disincentive to pharmaceuticals. […] In this project we exploit the poly-pharmacology of drugs to discover new indications via phenotypic screening of a panel of 19 well-characterized cell lines derived from solid tumors seen in children and adolescents. The goal is to identify approved drugs with previously unrecognized anticancer properties that has the potential to reveal new mechanisms and biological processes involved in carcinogenesis or drug resistance. We employed a titration-based paradigm (quantitative high-throughput screening or qHTS), where all compounds were tested at multiple concentrations for their effect on cell viability. Concentration-response curves (CRCs) were derived directly from the primary screen, and both potency and efficacy values were used to identify compounds with robust bioactivity profiles. […] These two assays will be used to validate active compounds and assess the correlation of compound's potency in 2D vs 3D cultures on selected cell lines. Assay Submitter: Nathalia J. Martinez, National Center for Advancing Translational Sciences, National Institutes of Health, Rockville, MD, USA; email: natalia.martinez@nih.gov Shen, M et al. Quantitative high-throughput phenotypic screening of pediatric cancer cell lines identifies multiple opportunities for drug repurposing. Oncotarget 2017 Dec 19;9(4):4758-4772. PMID 29435139.
The cells were obtained from University of North Carolina (UNC), Pediatric Preclinical Testing Program (PPT), and Coriell Institute (CI). qHTS viability in 3D culture: Cells were assayed in phenol red-free growth media at a density of 1,000 cells/well, with the exception of Daoy, and SH-N-SH which were assayed at 1,500 cells/ well. Thirty muL of cells were dispensed into 384-well, ULA, round bottom plates (Corning) using a Multidrop dispenser. Plates were spun down at 1,000 rpm for 1 min and incubated at 37 degrees C, 5% CO2, under a humidified atmosphere for either 24 (Daoy) or 48 hours (all other cell lines) to allow spheroid formation. Ninety-two nanoliter of compounds and controls (neutral control DMSO or positive control bortezomib at final concentrations of 0.5 µM) were subsequently transferred via GNF Pintool. Plates were sealed using a breathable seal (Diversified Biotech, Dedham, MA) and incubated for 72 hours at 37 degrees C. Spheroid viability was first determined by high-content imaging using Hoechst 33342 and Propidium Iodide (PI, ThermoFisher Scientific), followed by addition of CellTiter-Glo 3D (Promega). Specifically, 3 µL/well of PBS containing a 1:500 dilution of both dyes was dispensed using Multidrop. Dyes were incubated for 1 hour before imaging using the Celigo Image Cytometer. Then, 20 µl of CellTiter-Glo 3D were added per well. Plates were incubated for 30 min at RT on a VWR microplate shaker (300 rpm) and analyzed for luminescence intensity using a ViewLux High-throughput CCD imager equipped with clear filters. Image analysis was done using the Celigo Tumorsphere 1+2+3 application software as previously described. Briefly, spheroids were first identified using bright-field image segmentation, and then the fluorescent intensities of PI and Hoechst 3342 were obtained using red (EX: 531/40 nm, EM: 629/53 nm) and blue (EX: 377/50 nm, EM: 470/22 nm) filters, respectively. The data were exported to Excel, and the average fluorescent intensities were used to calculate the ratio of PI over Hoechst, which was used to quantify viability. Percent activity based on neutral and positive control bortezomib was derived and fitted as described in the qHTS data analysis and statistics section below.

| SMILES | Potency |
| --- | --- |
| COc1cc([C@@H]2c3cc4c(cc3C(O[C@@H]3O[C@@H]5CO[C@@H](c6cccs6)OC5[C@H](O)[C@H]3O)C3COC(=O)[C@@H]32)OCO4)cc(OC)c1O (some centres undefined) | active: 16.2 nM |
| CC(C)(C)NC(=O)[C@H]1CN(Cc2cccnc2)CCN1C[C@@H](O)C[C@@H](Cc1ccccc1)C(=O)N[C@H]1c2ccccc2C[C@H]1O | inactive |
| COc1c(C)c2c(c(O)c1C/C=C(\C)CCC(=O)OCCN1CCOCC1)C(=O)OC2 | inconclusive: 2280 nM [inhibitor, full curve] |
| C[C@@]12O[C@@H](C[C@]1(O)CO)n1c3ccccc3c3c4c(c5c6ccccc6n2c5c31)CNC4=O | active: 5110 nM |
| CC(=O)OCC(=O)[C@@]12N=C(C)O[C@@H]1C[C@H]1[C@@H]3CCC4=CC(=O)C=C[C@]4(C)[C@H]3[C@@H](O)C[C@@]12C | inactive |
| Nc1nc2c(ncn2COCCO)c(=O)[nH]1 | inconclusive: 1.8 nM [inhibitor, full curve] |
| CCCCc1nc2cc(C=CC(=O)NO)ccc2n1CCN(CC)CC | active: 1440 nM |
| COc1ccc(-c2nc(N3CCOCC3)c3sc(CN(C)c4ncc(C(=O)NO)cn4)cc3n2)cn1 | inactive |
| COc1cccc2c1C(=O)c1c(O)c3c(c(O)c1C2=O)C[C@@](O)(C(=O)CO)C[C@@H]3O[C@H]1C[C@H](N)[C@H](OC2CCCCO2)[C@H](C)O1 (some centres undefined) | active: 1020 nM |
| C[C@]1(c2nc3c(C(N)=O)cccc3[nH]2)CCCN1 | inconclusive: 12800 nM [inhibitor, single point] |
| C[C@H]1[C@@H](OC(=O)CCC(=O)O)O[C@@H]2O[C@@]3(C)CC[C@@H]4[C@H](C)CC[C@@H]1[C@@]24OO3 | inconclusive: 1810 nM [inhibitor, full curve] |
| CCOc1cc(N2CCC(O)CC2)ccc1Nc1ncc2c(n1)N(C)c1ccccc1C(=O)N2C | inactive |
| CC(=O)O[C@@]12CO[C@H]1C[C@H](O)[C@@]1(C)C(=O)[C@H](O)C3=C(C)[C@@H](OC(=O)C(O)[C@@H](NC(=O)OC(C)(C)C)c4ccccc4)C[C@@](O)([C@@H](OC(=O)c4ccccc4)[C@@H]21)C3(C)C (some centres undefined) | inconclusive: 6.4 nM [inhibitor, full curve] |
| CCc1nc(N)nc(N)c1-c1ccc(Cl)cc1 | inconclusive: 5740 nM [inhibitor, full curve] |

Among those listed so far, these have an NH in an aromatic ring.

| SMILES | Potency |
| --- | --- |
| Nc1nc2c(ncn2COCCO)c(=O)[nH]1 | inconclusive: 1.8 nM [inhibitor, full curve] |
| C[C@]1(c2nc3c(C(N)=O)cccc3[nH]2)CCCN1 | inconclusive: 12800 nM [inhibitor, single point] |
